Data reported in article PMC4488328.
Changes are numbered by the printed parent chain. These are yes or no findings as the source states them, for the method shown. Binding seen in cells or lysates may run through a third protein. Some results given as binding are weak or reduced against the parent protein; the word gives no strength. Tags and fused reporters may be left off the sequences shown. Values belong to the binder of their own block, whether it stands above or below them.

Target: T1, Salvador (Sav), Myc-tagged (Drosophila) (UniProt Q9VCR6)
T1 sequence: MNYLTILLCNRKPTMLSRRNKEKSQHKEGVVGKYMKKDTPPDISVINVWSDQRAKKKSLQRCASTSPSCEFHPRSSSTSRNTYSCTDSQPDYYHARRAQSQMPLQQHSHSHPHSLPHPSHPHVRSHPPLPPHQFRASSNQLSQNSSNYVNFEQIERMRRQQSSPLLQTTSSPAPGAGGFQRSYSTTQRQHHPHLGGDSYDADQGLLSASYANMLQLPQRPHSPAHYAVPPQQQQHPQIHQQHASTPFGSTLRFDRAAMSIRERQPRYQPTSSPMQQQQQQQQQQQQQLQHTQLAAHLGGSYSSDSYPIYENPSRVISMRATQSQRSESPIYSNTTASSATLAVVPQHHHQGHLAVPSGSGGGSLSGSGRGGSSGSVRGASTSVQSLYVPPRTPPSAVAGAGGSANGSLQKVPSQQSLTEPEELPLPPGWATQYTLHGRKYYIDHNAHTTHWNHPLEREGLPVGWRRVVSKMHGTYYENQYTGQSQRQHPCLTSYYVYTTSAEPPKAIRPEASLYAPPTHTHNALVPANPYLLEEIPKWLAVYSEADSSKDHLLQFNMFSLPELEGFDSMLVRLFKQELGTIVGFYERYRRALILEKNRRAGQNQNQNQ
Assay: co-IP; within the Sav ubiquitylation assay: S2 cells transfected with Myc-Sav (or Sav∆N, Sav∆C), HA-ubiquitin and Herc4 and/or Hpo constructs; proteasome inhibitors 4 h unless stated otherwise (5 mM NEM in Fig 8A); anti-Myc immunoprecipitation with Protein A Sepharose; western blot

binding: binds
B1: Hippo (Hpo) (enzyme, UniProt Q8T0S6 1-669)
chain: MSEPEVTSVVDMKSPNISSSCSFFKLKKLSEESLLQPPEKVFDIMYKLGEGSYGSVYKAVHKESSSIVAIKLVPVESDLHEIIKEISIMQQCDSPYVVRYYGSYFKQYDLWICMEYCGAGSVSDIMRLRKKTLTEDEIATILSDTLQGLVYLHLRRKIHRDIKAANILLNTEGYAKLADFGVAGQLTDTMAKRNTVIGTPFWMAPEVIEEIGYDCVADIWSLGITALEMAEGKPPYGEIHPMRAIFMIPQKPPPSFREPDRWSTEFIDFVSKCLVKEPDDRATATELLEHEFIRNAKHRSILKPMLEETCAIREQQRANRSFGGVLAASQAKSLATQENGMQQHITDNAFMEDPGTLVPEKFGEYQQSSASDATMIAHAEQGVDEGTLGPGGLRNLSKAAAPAAASSAASPLDMPAVDSGTMVELESNLGTMVINSDSDDSTTAKNNDDQKPRNRYRPQFLEHFDRKNAGDGRGDEKPIATEYSPAAAEQQQQQQQQQQQQQQDEQHLASGANDLNNWEHNMEMQFQQISAINQYGLQQHQQQQQVLMAYPLMNEQLIALNNQPNLLLSNAAPMGQQGIPAAAPAQPPPAYQNQHMHTQSHAYVEGEFEFLKFLTFDDLNQRLCNIDHEMELEIEQLNKKYNAKRQPIVDAMNAKRKRQQNINNNLIKI

binding: binds
B2: HpoT195A (kinase-dead Hpo, T-loop mutant) (enzyme, UniProt Q8T0S6 1-669)
chain: B1 chain with T195A
